## Library compounds against nucleic acid targets

From ROBIN, a set of small-molecule microarray screens (doi:10.1002/anie.202211358).

Targets, with sequences 5′ to 3′:
SAM-II: SAM-II riboswitch RNA pseudoknot, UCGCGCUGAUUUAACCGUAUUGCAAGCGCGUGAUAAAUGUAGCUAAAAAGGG. About 21,000 compounds screened, about 200 hits.
PreQ1: PreQ1 riboswitch RNA pseudoknot, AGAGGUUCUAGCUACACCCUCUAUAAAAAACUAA. From B. subtilis. About 24,000 compounds screened, about 170 hits.
TPP: TPP riboswitch RNA three-way junction, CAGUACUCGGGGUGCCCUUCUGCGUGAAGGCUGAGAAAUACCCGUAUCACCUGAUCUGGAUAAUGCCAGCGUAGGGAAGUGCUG. About 24,000 compounds screened, about 160 hits.

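Each compound is printed as two spots on a slide made to bind it covalently, so it has no test concentration; the read-out is fluorescence of the bound, labelled oligonucleotide. The data file lists only calls. An earlier report of the laboratory on the PreQ1, TPP and SAM-II riboswitches (doi:10.1038/s41467-019-09493-3) used 1 µM RNA for 2 h and required a mean Z-score above 3 (spot signal-to-noise against the whole library), a score well above that on a control array, and duplicate spots agreeing (coefficient of variation under 100); it then also set aside compounds that hit other targets, which this list keeps. The cut-offs behind this list may differ. A missing hit is not proof of no binding, and a hit is not a measured affinity.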 A compound is marked active if it was called a hit and inactive if it was screened but was not. This is an unselected part of the compounds tested. A target missing from an entry has no call listed here.

CC(NC(=O)c1ccncc1F)c1nnc2n1CCNCC2 (centres undefined) was scored SAM-II: inactive; PreQ1: inactive; TPP: inactive.
COc1ccc(CNc2ncccc2C(=O)N2CCOCC2)cc1 was scored SAM-II: inactive; PreQ1: inactive; TPP: inactive.
Cc1cccc(Nc2nc(-c3ccc(O)cc3O)cs2)n1 was scored SAM-II: inactive; PreQ1: inactive; TPP: inactive.
O=C1c2cccc(Sc3ccccc3)c2C(=O)c2c(Sc3ccccc3)cccc21 was scored SAM-II: inactive; PreQ1: inactive; TPP: inactive.
NCCCCNCCCN was scored SAM-II: inactive; PreQ1: inactive; TPP: inactive.
Fc1ccc(-c2noc3ncnc(NC4CCCCCC4)c23)cc1 was scored PreQ1: inactive; TPP: inactive.
CN(C)C[C@@H]1CN(Cc2nc(-c3ccccc3)cs2)C[C@@H]1CO was scored SAM-II: inactive; PreQ1: inactive; TPP: inactive.
Cc1nccn1Cc1nnc(C2CCCN(Cc3cccnc3N)C2)n1C (centres undefined) was scored SAM-II: inactive; PreQ1: inactive; TPP: inactive.
CCc1ccc(CNCc2c(C(=O)O)n(CC)c3cc(OC)ccc23)cc1 was scored PreQ1: inactive; TPP: inactive.
CCOc1ccc(OCC)c(Nc2c(-c3ccccc3)c(=O)c2=O)c1 was scored PreQ1: inactive; TPP: inactive.
Cc1ccc(C)c(NC(=O)c2nnn(Cc3ccc(F)cc3Cl)c2N)c1 was scored SAM-II: inactive; PreQ1: inactive; TPP: inactive.
Cc1cc(F)ccc1S(=O)(=O)NCc1nc(CC(N)=O)nn1CCO was scored SAM-II: inactive; PreQ1: inactive; TPP: inactive.
CCc1c(C#N)c(N)nc2sc(C(=O)OCc3ccccc3)c(N)c12 was scored SAM-II: inactive; PreQ1: inactive; TPP: inactive.
CCn1c(C(=O)O)c(CNCCCc2ccccc2)c2ccccc21 was scored PreQ1: inactive; TPP: inactive.
COc1ccc(C(=O)N2C[C@@H](O)[C@H](NCCN3CCNC3=O)C2)cc1 was scored SAM-II: inactive; PreQ1: inactive; TPP: inactive.
S=c1[nH]c2ccccc2n2cccc12 was scored SAM-II: inactive; PreQ1: inactive; TPP: inactive.
N#CC1=C(N)Oc2c(c(=O)oc3ccccc23)C1c1ccc(F)cc1 (centres undefined) was scored SAM-II: inactive; PreQ1: inactive; TPP: inactive.
CCOC(=O)c1c(C)c(C(=O)OCC)n(C)c1C was scored SAM-II: inactive; PreQ1: inactive; TPP: inactive.
CC(O)c1nc2ccccc2n1CCCOc1ccccc1 (centres undefined) was scored SAM-II: inactive; PreQ1: inactive; TPP: inactive.
COc1cc(NC2c3ccccc3C(=O)N2c2cccnc2)cc(OC)c1OC (centres undefined) was scored SAM-II: inactive; PreQ1: inactive; TPP: inactive.
Nc1ccc(Sc2ccc(N)c(C(=O)c3ccccc3)c2)cc1C(=O)c1ccccc1 was scored SAM-II: active; PreQ1: inactive; TPP: inactive.
Cc1ccc(NC(=O)[C@@H]2CNC[C@H](C(=O)NCCN3CCCC3=O)C2)cc1 was scored SAM-II: inactive; PreQ1: inactive; TPP: inactive.
COc1ccc(-c2n[nH]cc2CN2CCOCC(CO)C2)cc1OC (centres undefined) was scored SAM-II: inactive; PreQ1: inactive; TPP: inactive.
C#CCOCC1CN(c2ccccc2)C(=O)O1 (centres undefined) was scored SAM-II: inactive; PreQ1: inactive; TPP: inactive.

For reference, 2 entries once more:

{"compound": "CCn1c(C(=O)O)c(CNCCCc2ccccc2)c2ccccc21", "PreQ1": "inactive", "TPP": "inactive"}
{"compound": "COc1cc(NC2c3ccccc3C(=O)N2c2cccnc2)cc(OC)c1OC", "stereo": "centres undefined", "SAM-II": "inactive", "PreQ1": "inactive", "TPP": "inactive"}